Reference: PubChem BioAssay AID2551 (National Center for Advancing Translational Sciences (NCATS), 2010)
Hit rate of the full screen: of about 310,000 compounds, about 17,000 (5.5%) were called active. The shares of active, inactive and inconclusive entries below differ from those in the screen. The call rests on the fitted dose curve; in most records, active means well fitted inhibition curve with a large enough effect; inconclusive means small, poorly fitted or top-dose-only effect, or effect the other way; inactive means no such curve, though single readings can be large or run the other way. A potency beside an inconclusive call is a rough fit, not a confirmed value.

Amino acid sequences for entries named in this document (tags omitted). A change or cut given only in a name is not applied to a line headed by its entry.
UniProt P51450: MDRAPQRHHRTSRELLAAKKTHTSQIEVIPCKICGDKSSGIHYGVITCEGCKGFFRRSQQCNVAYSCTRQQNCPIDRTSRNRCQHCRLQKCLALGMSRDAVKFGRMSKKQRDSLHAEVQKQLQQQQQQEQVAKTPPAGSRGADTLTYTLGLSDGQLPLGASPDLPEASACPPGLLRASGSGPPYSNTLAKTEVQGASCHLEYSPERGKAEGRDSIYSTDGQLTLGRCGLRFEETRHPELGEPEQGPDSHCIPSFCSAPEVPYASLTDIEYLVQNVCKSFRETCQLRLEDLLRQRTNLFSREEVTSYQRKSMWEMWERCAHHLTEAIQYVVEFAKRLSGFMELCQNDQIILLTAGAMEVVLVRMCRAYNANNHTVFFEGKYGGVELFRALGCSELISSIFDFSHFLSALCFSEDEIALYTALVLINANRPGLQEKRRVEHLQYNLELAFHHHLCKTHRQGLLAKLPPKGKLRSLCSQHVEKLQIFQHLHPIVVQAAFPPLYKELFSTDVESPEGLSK

Each compound was assayed against Nuclear receptor ROR-gamma (Mus musculus) (UniProt P51450) (assay: qHTS for inhibitors of ROR gamma transcriptional activity). Settings: Drosophila S2 Gal4-RORgamma UAS-luciferase reporter, 20 h; series mostly up to 53.6 µM.
How it was run: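 Stably transfected Drosophila Schneider cells are the test system, with ROR gamma fused to Gal4 and luciferase under UAS control; luminescence is read after 20 hr of 700 uM copper sulfate induction at ambient temperature.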
Further: nearly all actives have a fitted effect of over 60% in size.
Potency means the concentration at half of the fitted maximal effect.

**Q.** Which Potency does the source give for `S=c1[nH]nc(-c2cc(-c3ccccc3)n[nH]2)n1/N=C/C(Br)=C/c1ccccc1` here?
**A.** inconclusive: 35.5 µM [inhibitor, single point]

**Q.** `COc1cccc(/C=N/NC(=O)CCn2nnc3ccccc32)c1` was tested. Which Potency did it give?
**A.** inconclusive: 35.5 µM [activator, single point]

**Q.** Which Potency does the source give for `CC(=O)N1CCOc2ccc(S(=O)(=O)N3CCN(c4cccc(C(F)(F)F)c4)CC3)cc21` here?
**A.** inactive

**Q.** With `Cc1ccc([N+](=O)[O-])c(OCC(=O)OCC(=O)c2ccccc2)c1` as the compound, how does the Potency read?
**A.** inactive

**Q.** Which Potency does the source give for `O=C(/C=C/c1ccccc1)N1CCN(c2c(Cl)cccc2[N+](=O)[O-])CC1` here?
**A.** inconclusive: 22.4 µM [activator, single point]

**Q.** Which Potency does the source give for `O=C(CO/N=C/c1ccc(OC(F)F)cc1)N1CCc2ccccc21` here?
**A.** inactive

**Q.** How did the Potency turn out when `N#Cc1ccccc1COC(=O)c1cccnc1N` was run?
**A.** inconclusive: 35.5 µM [activator, single point]

**Q.** `CCCC(C(=O)NC1CCCC1)N(Cc1cccs1)C(=O)c1snc(C(N)=O)c1N` (centres undefined) was tested. Which Potency did it give?
**A.** inactive

**Q.** How did the Potency turn out when `Cc1ccc(-c2noc(CCCC(=O)Nc3cccnc3)n2)cc1` was run?
**A.** active: 0.562 µM

**Q.** How did the Potency turn out when `CO/N=C(\Cn1ncc(NC2CCCCC2)c(Br)c1=O)c1ccc(Cl)cc1` was run?
**A.** inconclusive: 31.6 µM [activator, single point]

**Q.** Which Potency does the source give for `COc1cccc(/C=N/NC(N)=S)c1OCc1cccc(Cl)c1` here?
**A.** active: 2.82 µM

**Q.** With `O=C(Nc1csc([N+](=O)[O-])c1)Nc1ccccc1Cl` as the compound, how does the Potency read?
**A.** inactive

**Q.** For `Cc1c(C)c2ccc(OC(C)C(=O)NC3CCN(Cc4ccccc4)CC3)cc2oc1=O` (centres undefined), which Potency is on record?
**A.** inactive

**Q.** For `CCOc1ccc(CCNC(=O)c2ccc(CNS(=O)(=O)c3ccccc3)cc2)cc1OCC`, which Potency is on record?
**A.** inactive

**Q.** For `Clc1ccc(-c2nnc(-c3cccnc3)o2)cc1`, which Potency is on record?
**A.** inconclusive: 1.78 µM [activator, full curve]

**Q.** For `CCN(CC)C(C)CN1c2ccccc2Sc2ccccc21` (centres undefined), which Potency is on record?
**A.** inconclusive: 11.2 µM [activator, partial curve]

**Q.** With `O=C(c1ccccc1)c1c2c(cc3sc4ccccc4[n+]13)-c1cccc3cccc-2c13` as the compound, how does the Potency read?
**A.** inconclusive: 15.8 µM [inhibitor, single point]

**Q.** For `Cc1ccc(-n2c(C)nc3c(cnn3-c3ccc(C)c(C)c3)c2=O)cc1C`, which Potency is on record?
**A.** inconclusive: 10 µM [activator, partial curve, poor fit]

**Q.** Which Potency does the source give for `Cc1ccc(OCC(=O)Nc2ccccc2N2CCOCC2)c(C)c1` here?
**A.** inconclusive: 35.5 µM [activator, single point]

**Q.** With `COc1ccc2c(c1)C(C)=CC(C)(C)N2C(=O)C(C)N1C(=O)c2ccccc2C1=O` (centres undefined) as the compound, how does the Potency read?
**A.** inconclusive: 12.6 µM [activator, single point]

**Q.** How did the Potency turn out when `CCCNC(=O)NS(=O)(=O)c1ccc(Cl)cc1` was run?
**A.** inactive

**Q.** `CC(=O)Nc1ccc(NC(=O)Nc2ccc(C)c(C)c2)cc1` was tested. Which Potency did it give?
**A.** inactive

**Q.** `O=C(/C=C/c1ccco1)NC(=S)Nc1ccc(O)c(-c2nc3ccccc3s2)c1` was tested. Which Potency did it give?
**A.** active: 2 µM

**Q.** How did the Potency turn out when `Cc1occc1-c1nnc(SCC(=O)Nc2nc(-c3ccccc3)cs2)o1` was run?
**A.** inconclusive: 35.5 µM [inhibitor, single point]

**Q.** `Cc1nc(NC(=O)/C=C/c2ccccc2)sc1C(=O)NCCO` was tested. Which Potency did it give?
**A.** inactive

**Q.** With `O=C(O)c1ccccc1SCc1cn2cc(Cl)ccc2n1` as the compound, how does the Potency read?
**A.** inconclusive: 35.5 µM [inhibitor, single point]

**Q.** For `Cc1ccnc(NC(=O)C2CCN(S(=O)(=O)c3cccc4nonc34)CC2)c1`, which Potency is on record?
**A.** inconclusive: 22.4 µM [activator, single point]

**Q.** For `COc1ccccc1-c1nc2cc(Cl)ccc2c(=O)n1O`, which Potency is on record?
**A.** inconclusive: 2.51 µM [inhibitor, partial curve, poor fit]

**Q.** For `CC(C)C(NC(=O)c1ccccc1Cl)C(=O)OCc1nc2scc(-c3ccccc3Cl)c2c(=O)[nH]1` (centres undefined), which Potency is on record?
**A.** inconclusive: 3.16 µM [activator, single point]

**Q.** For `CC12CN3CC(C)(CN(C1)C31C(=O)N(Cc3ccccc3)c3ccccc31)C2=O` (centres undefined), which Potency is on record?
**A.** inconclusive: 0.178 µM [inhibitor, full curve, poor fit]

**Q.** How did the Potency turn out when `Cc1ccccc1Cn1nnc(-c2ccc(F)cc2)n1` was run?
**A.** inconclusive: 10 µM [activator, partial curve]

**Q.** With `CNC(=S)N/N=C(\C)c1cccc(C(F)(F)F)c1` as the compound, how does the Potency read?
**A.** active: 1.12 µM

**Q.** For `CCN1CCN(CCCNC(=O)C2CCN(c3nnc(-n4c(C)ccc4C)s3)CC2)CC1`, which Potency is on record?
**A.** inactive

**Q.** Which Potency does the source give for `COc1ccc(C2/C=C\CN(C(=O)c3ccccc3)C(Cc3ccccc3)C(=O)N2Cc2ccc(F)cc2)cc1` (centres undefined) here?
**A.** inconclusive: 8.91 µM [inhibitor, partial curve, poor fit]

**Q.** How did the Potency turn out when `CCc1ccc(CNC(=O)Cn2nc(-c3ccc(C)cc3)ccc2=O)cc1` was run?
**A.** inactive

**Q.** Which Potency does the source give for `O=C(NC(C(=O)c1ccccc1)N1CCCCCC1)c1ccco1` (centres undefined) here?
**A.** inactive

**Q.** With `CC(C)(C)C1CCC(=NNC(=O)c2ccc(Br)o2)CC1` (centres undefined) as the compound, how does the Potency read?
**A.** inactive

**Q.** `CCOC(=O)C1CCN(C(c2ccccn2)c2c(C)[nH]c3ccccc23)CC1` (centres undefined) was tested. Which Potency did it give?
**A.** inconclusive: 35.5 µM [inhibitor, single point]

**Q.** How did the Potency turn out when `COCC(C)NC(=S)Nc1ccccc1[N+](=O)[O-]` (centres undefined) was run?
**A.** inconclusive: 20 µM [inhibitor, single point]

**Q.** `COC(=O)C1=CN(Cc2ccc(C)cc2)C=C(C(=O)OC)C1c1ccc(F)c(F)c1` was tested. Which Potency did it give?
**A.** inconclusive: 7.08 µM [activator, partial curve]

**Q.** For `Nc1ccccc1Nc1ccccc1`, which Potency is on record?
**A.** active: 12.6 µM

**Q.** With `O=C(c1cnc(N2CCN(c3ncccn3)CC2)c2ccccc12)N1CCN(c2ccccn2)CC1` as the compound, how does the Potency read?
**A.** inconclusive: 12.6 µM [activator, single point]

**Q.** With `O=C(COC(=O)c1cccc(NS(=O)(=O)c2ccc(F)c(F)c2)c1)NC(=O)NC1CCCC1` as the compound, how does the Potency read?
**A.** inconclusive: 35.5 µM [activator, single point]

**Q.** Which Potency does the source give for `N#Cc1ccsc1NC(=O)COc1ccc(-c2nnco2)cc1` here?
**A.** inconclusive: 1.26 µM [inhibitor, single point]

**Q.** `COC(=O)c1ccc(NC(=O)c2ccc3c(c2)OCO3)cc1` was tested. Which Potency did it give?
**A.** inconclusive: 1.58 µM [activator, full curve]

**Q.** How did the Potency turn out when `CCn1c(SCCC(C)C)nnc1-c1c[nH]c2ccccc12` was run?
**A.** inconclusive: 12.6 µM [activator, single point]

**Q.** For `CC(=O)O[C@]1(C(C)=O)CC[C@H]2[C@@H]3C=C(Cl)C4=CC(=O)CC[C@]4(C)[C@H]3CC[C@@]21C`, which Potency is on record?
**A.** inactive

**Q.** How did the Potency turn out when `COc1ccc2cc3c(N)nn(C(=O)c4ccccc4Cl)c3nc2c1` was run?
**A.** inactive

**Q.** Which Potency does the source give for `O=C(Nc1nnc(-c2cccnc2)o1)c1cccc([N+](=O)[O-])c1` here?
**A.** active: 0.794 µM

**Q.** For `COCCNc1ccnc(-c2ccccc2C(F)(F)F)n1`, which Potency is on record?
**A.** inactive

**Q.** For `COc1ccc(NC(=O)c2nc[nH]c2C(=O)N2CCC(C)CC2)cc1`, which Potency is on record?
**A.** active: 12.6 µM

**Q.** With `Cc1cc(C)cc(NC(=S)NCC2CCCO2)c1` (centres undefined) as the compound, how does the Potency read?
**A.** active: 11.2 µM

**Q.** Which Potency does the source give for `Cc1nn(Cc2ccc(Cl)cc2)c(Cl)c1/C=N/NC(=O)CNc1ccccc1F` here?
**A.** inconclusive: 35.5 µM [inhibitor, single point]

**Q.** `O=C(Nc1ccc(OC(F)(F)F)cc1)Nc1cccc([N+](=O)[O-])c1` was tested. Which Potency did it give?
**A.** inconclusive: 3.55 µM [activator, partial curve]

**Q.** For `O=C(Nc1ccc2c(c1)OCCO2)c1cc2ccccc2o1`, which Potency is on record?
**A.** inactive

**Q.** Which Potency does the source give for `Cc1ccc(Nc2nc(Cl)c(C=O)s2)cc1Cl` here?
**A.** inconclusive: 11.2 µM [activator, single point]

**Q.** How did the Potency turn out when `CCCn1c(-c2ccc(F)cc2)nc2c(NC3CCN(Cc4ccccc4)CC3)nc(C)nc21` was run?
**A.** inconclusive: 10 µM [inhibitor, single point]

**Q.** `O=C(Nc1nnc(SCc2ccccc2F)s1)C1=COCCO1` was tested. Which Potency did it give?
**A.** inconclusive: 0.158 µM [activator, full curve, poor fit]

**Q.** For `CCc1ccc(/C=C/C(=O)c2c(C)cc(C)[nH]c2=O)cc1`, which Potency is on record?
**A.** inconclusive: 35.5 µM [inhibitor, single point]

**Q.** `CSCC[C@H](NC(=O)c1ccco1)c1nnc2ccccn12` was tested. Which Potency did it give?
**A.** inactive

**Q.** For `CCc1nc2ccc(C(=O)O)cc2nc1CC`, which Potency is on record?
**A.** active: 0.708 µM

**Q.** With `COCCSc1nnc(NC(=O)C2CCN(C(=O)c3ccco3)CC2)s1` as the compound, how does the Potency read?
**A.** inconclusive: 5.62 µM [activator, partial curve]

**Q.** Which Potency does the source give for `COc1ccc(NC(=O)c2nc(S(=O)(=O)Cc3cccc(C)c3)ncc2Cl)c(OC)c1` here?
**A.** inconclusive: 0.562 µM [inhibitor, full curve, poor fit]

**Q.** How did the Potency turn out when `O=C(O)c1ccc(N/N=C/c2cn(-c3ccccc3)nc2-c2cccs2)cc1` was run?
**A.** inconclusive: 31.6 µM [inhibitor, single point]

**Q.** For `CN(Cc1nccn1C)C(=O)C1CCC(=O)N(Cc2cccc(C(F)(F)F)c2)C1` (centres undefined), which Potency is on record?
**A.** inactive

**Q.** With `CCOc1ccc2nc(NC(=O)C(NS(=O)(=O)c3cccc4nsnc34)C(C)C)sc2c1` (centres undefined) as the compound, how does the Potency read?
**A.** active: 15.8 µM

**Q.** Which Potency does the source give for `CC(O)Cc1nsc(NC(=O)c2cccs2)n1` (centres undefined) here?
**A.** inconclusive: 0.708 µM [activator, full curve]

**Q.** How did the Potency turn out when `Cc1cc(NC(=O)c2cc(C(C)C)on2)nn1Cc1ccc(Cl)cc1` was run?
**A.** inactive

**Q.** For `CCC(C)n1c(SCc2ccccc2)nc2ccsc2c1=O` (centres undefined), which Potency is on record?
**A.** inconclusive: 25.1 µM [activator, single point]

**Q.** For `CCCOc1ncnc2c1[nH]c1ccccc12`, which Potency is on record?
**A.** inactive

**Q.** Which Potency does the source give for `COc1cc(NC(=O)Cc2nn(C)c(=O)c3ccccc23)cc(OC)c1` here?
**A.** inconclusive: 3.55 µM [activator, full curve, poor fit]

**Q.** Which Potency does the source give for `COC(=O)CN1C(c2ccccc2)=Nc2ccc(Cl)cc2C1c1ccccc1` (centres undefined) here?
**A.** active: 12.6 µM

**Q.** How did the Potency turn out when `COc1ccc([N+](=O)[O-])cc1NC(=O)CSc1nncn1-c1ccccc1` was run?
**A.** inconclusive: 20 µM [activator, single point]

**Q.** How did the Potency turn out when `CCCCn1c(Nc2ccc(OC)cc2)nc2ccccc21` was run?
**A.** active: 10 µM
